Results on 19 molecules are retold here after the supplement of paper PMC8326762, “A Small Molecule Inhibitor of Pex3–Pex19 Interaction Disrupts Glycosome Biogenesis and Causes Lethality in Trypanosoma brucei” (Frontiers in Cell and Developmental Biology, 2021).

Counter-ions that a name gives are not always drawn. The list shows a part of the results. The data scatter; read single values as rough.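 Yeast growth was measured as optical density at 600 nm. Two-hybrid strains grew without histidine, so growth depended on Pex3–Pex19 binding. A compound was trypanosome-selective if it reduced growth of the trypanosome-pair strain by over 65% and of the human-pair strain by under 65%.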

For assay [1], the system named is Saccharomyces cerevisiae HF7c pdr5Δ. The assay is described as follows: general growth inhibition of yeast HF7c pdr5Δ in -Leu -Trp medium, relative to DMSO; higher = stronger general growth inhibition. As to conditions: 100 µM; 24 h.
In assay [2] the test system is human PEX3-PEX19 interaction (yeast two-hybrid). The assay is described as follows: growth inhibition of yeast two-hybrid strain reporting HsPex3-HsPex19 interaction, relative to DMSO; higher = stronger inhibition of human Pex3-Pex19 interaction / growth. As to conditions: 100 µM; 24 h; 3-aminotriazole 10 mM.
In assay [3] the test system is T. brucei Pex3-Pex19 interaction (yeast two-hybrid). The experiment in a line: growth inhibition of yeast two-hybrid strain reporting TbPex3-TbPex19 interaction, relative to DMSO; higher = stronger inhibition of T. brucei Pex3-Pex19 interaction / growth. Conditions: 100 µM; 24 h.

As to `CCCCCCCCCCCCCCCC(=O)OC[C@H](COP(=O)(O)OCCNC(=O)[C@H](C)NC(=O)CC[C@@H](NC(=O)[C@H](C)NC(=O)[C@@H](C)O[C@H]1[C@H](O)[C@@H](CO)OC(O)[C@@H]1NC(C)=O)C(N)=O)OC(=O)CCCCCCCCCCCCCCC` (some centres not stated) [Mifamurtide], the general growth inhibition in assay [1] came to 41.8%. Further, the results for the growth inhibition in assay [2] and in assay [3] were 41.9% and 63.2%, respectively.

`C=CCc1cccc(/C=N/NC(=O)CN2CCN(Cc3ccccc3)CC2)c1O` had a general growth inhibition in assay [1] of 48.6%. The results for the growth inhibition in assay [2] and in assay [3] were 31.9% and 45.9%, respectively.

The molecule `CC(C)Cn1c(=O)n(C)c(=O)c2[nH]cnc21` [3-Isobutyl-1-methylxanthine] displayed a general growth inhibition in assay [1] of 17.7%. Further, the growth inhibition in assay [2] amounted to 20.3%; in assay [3] it was 36.3%.

`O=Nc1c(-c2c(O)[nH]c3ccccc23)[nH]c2ccccc12` [Indirubin-3'-oxime] yielded a general growth inhibition in assay [1] of 24.6%. In addition, the figures for the growth inhibition in assay [2] and in assay [3] were 8.42% and 29.3%, respectively.

`CCCCCCCCCCCCCCC[C@H](O)[C@H](N)CO` (racemic) [DL-erythro-Dihydrosphingosine] yielded a general growth inhibition in assay [1] of 12.3%. Moreover, the growth inhibition in assay [2] is 9.61%; in assay [3], 50.8%.

In assay [1], `Cc1ccc(N(CC2=NCCN2)c2cccc(O)c2)cc1` [Phentolamine mesylate] displayed a general growth inhibition of 54.6%. For the same molecule, the growth inhibition in assay [2] worked out at 38.7%; in assay [3], 61.8%.

In the case of `COc1cc(C(=O)OCCCN2CCCN(CCCOC(=O)c3cc(OC)c(OC)c(OC)c3)CC2)cc(OC)c1OC` [Dilazep hydrochloride], the general growth inhibition in assay [1] was 37.1%. Also, the growth inhibition in assay [2] came out at 36%; in assay [3], 62.4%.

Regarding `CCN(CC)CCOC(=O)c1cc(Cl)c(N)cc1OC` [SDZ-205,557 hydrochloride], in assay [1], the general growth inhibition worked out at 55.6%. In addition, the growth inhibition in assay [2] turned out to be 53.9%; in assay [3], 60%.

In assay [1], `CC(=O)[C@]1(O)Cc2c(O)c3c(c(O)c2[C@@H](O[C@H]2C[C@H](N)[C@H](O)[C@H](C)O2)C1)C(=O)c1ccccc1C3=O` [Idarubicin] displayed a general growth inhibition of 86.2%. The growth inhibition was 84% in assay [2] and 78.4% in assay [3].

On to `OC(CCN1CCCCC1)(c1ccccc1)C1CC2C=CC1C2` (configuration not stated) [Biperiden hydrochloride], for which the general growth inhibition in assay [1] turned out to be 25%. For the same molecule, the growth inhibition in assay [2] was determined as 19.7%; in assay [3], 24.1%.

Consider `NC(=O)C(=O)O` [Sodium Oxamate], for which the general growth inhibition in assay [1] was 55%. The growth inhibition in assay [2] was determined as 53.5%; in assay [3] it was 60%.

The molecule `COc1ccc2c(c1)c(CC(=O)O)c(C)n2C(=O)c1ccc(Cl)cc1` [Indomethacin] gave a general growth inhibition in assay [1] of 64.5%. Moreover, the growth inhibition in assay [2] worked out at 46.5%; in assay [3] it was 55.5%.

In assay [1], `CC(C)NCC(O)COc1ccc(CCOCC2CC2)cc1` (configuration not stated) [Betaxolol hydrochloride] had a general growth inhibition of 43.4%. Further, the values for the growth inhibition in assay [2] and in assay [3] were 47.9% and 63.6%, respectively.

`CC/C(=C(\c1ccccc1)c1ccc(OCCN(C)C)cc1)c1ccccc1` [Tamoxifen] displayed a general growth inhibition in assay [1] of 85.5%. In addition, the values for the growth inhibition in assay [2] and in assay [3] were 82% and 73.6%, respectively.

For `CCOc1nc2cccc(C(=O)OC(C)OC(=O)OC3CCCCC3)c2n1Cc1ccc(-c2ccccc2-c2nn[nH]n2)cc1` (configuration not stated) [Candesartan cilexetil], the general growth inhibition in assay [1] was 37.6%. The growth inhibition in assay [2] came out at 25.1%; in assay [3], 35.4%.

Turning to `N[C@H](C(=O)O)[C@H](O)c1ccc(O)c(O)c1`, the general growth inhibition in assay [1] is 56.7%. Further, the results for the growth inhibition in assay [2] and in assay [3] were 42% and 66.9%, respectively.

In the case of `CC[n+]1c(/C=C/C=C2/N(C)c3ccccc3C2(C)C)sc2ccccc21`, the general growth inhibition in assay [1] is 84%. The growth inhibition in assay [2] is 81.2%; in assay [3], 74.6%.

`Cc1cn(C2C=CC(CO)O2)c(=O)[nH]c1=O` (configuration not stated) [2',3'-didehydro-3'-deoxythymidine] came in with a general growth inhibition in assay [1] of 34.1%. The growth inhibition in assay [2] amounted to 45.2%; in assay [3] it was 60%.

In turn, `CC(C(=O)O)c1cccc(C(=O)c2ccccc2)c1` (configuration not stated) [Ketoprofen] returned a general growth inhibition in assay [1] of 42.6%. Also, the growth inhibition in assay [2] was 37.3%; in assay [3], 60.6%.
